Some results were stated once for a whole list of compounds, not compound by compound.
System: primary bacterial inoculum
Test: Minimum bactericidal concentration (MBC), macro-method
Format: cell-based
Conditions: 18 hours incubation

CC(NC(=O)c1c[nH]c2ccc(Br)cc12)c1c[nH]c2ccc(Br)cc12 (centres unmarked) [Compound 4, 5-Bromo-N-(1-(5-bromo-1H-indol-3-yl)ethyl)-1H-indole-3-carboxamide]
reduction of the primary bacterial inoculum: 1-2 log CFU/mL

CC(C)(C)OC(=O)NCC(NC(=O)c1c[nH]c2ccc(Br)cc12)c1c[nH]c2ccc(Br)cc12 (centres unmarked) [Compound 3f, tert-Butyl(2-(5-bromo-1H-indol-3-yl)-2-(5-bromo-1H-indolyl-3-carboxamido)ethyl)carbamate]
reduction of the primary bacterial inoculum: 1-2 log CFU/mL

Reference: US9676715B2, “Bis-indolic derivatives, a process for preparing the same and their uses as a drug” (UNIVERSITE JOSEPH FOURIER, priority 2011, dated 2017)
